# Screening data, single-dose tests

Sequences of proteins named here, by UniProt entry; tags and fusion partners are left off. Residues count along the entry.
UniProt I6X8D2, whole entry: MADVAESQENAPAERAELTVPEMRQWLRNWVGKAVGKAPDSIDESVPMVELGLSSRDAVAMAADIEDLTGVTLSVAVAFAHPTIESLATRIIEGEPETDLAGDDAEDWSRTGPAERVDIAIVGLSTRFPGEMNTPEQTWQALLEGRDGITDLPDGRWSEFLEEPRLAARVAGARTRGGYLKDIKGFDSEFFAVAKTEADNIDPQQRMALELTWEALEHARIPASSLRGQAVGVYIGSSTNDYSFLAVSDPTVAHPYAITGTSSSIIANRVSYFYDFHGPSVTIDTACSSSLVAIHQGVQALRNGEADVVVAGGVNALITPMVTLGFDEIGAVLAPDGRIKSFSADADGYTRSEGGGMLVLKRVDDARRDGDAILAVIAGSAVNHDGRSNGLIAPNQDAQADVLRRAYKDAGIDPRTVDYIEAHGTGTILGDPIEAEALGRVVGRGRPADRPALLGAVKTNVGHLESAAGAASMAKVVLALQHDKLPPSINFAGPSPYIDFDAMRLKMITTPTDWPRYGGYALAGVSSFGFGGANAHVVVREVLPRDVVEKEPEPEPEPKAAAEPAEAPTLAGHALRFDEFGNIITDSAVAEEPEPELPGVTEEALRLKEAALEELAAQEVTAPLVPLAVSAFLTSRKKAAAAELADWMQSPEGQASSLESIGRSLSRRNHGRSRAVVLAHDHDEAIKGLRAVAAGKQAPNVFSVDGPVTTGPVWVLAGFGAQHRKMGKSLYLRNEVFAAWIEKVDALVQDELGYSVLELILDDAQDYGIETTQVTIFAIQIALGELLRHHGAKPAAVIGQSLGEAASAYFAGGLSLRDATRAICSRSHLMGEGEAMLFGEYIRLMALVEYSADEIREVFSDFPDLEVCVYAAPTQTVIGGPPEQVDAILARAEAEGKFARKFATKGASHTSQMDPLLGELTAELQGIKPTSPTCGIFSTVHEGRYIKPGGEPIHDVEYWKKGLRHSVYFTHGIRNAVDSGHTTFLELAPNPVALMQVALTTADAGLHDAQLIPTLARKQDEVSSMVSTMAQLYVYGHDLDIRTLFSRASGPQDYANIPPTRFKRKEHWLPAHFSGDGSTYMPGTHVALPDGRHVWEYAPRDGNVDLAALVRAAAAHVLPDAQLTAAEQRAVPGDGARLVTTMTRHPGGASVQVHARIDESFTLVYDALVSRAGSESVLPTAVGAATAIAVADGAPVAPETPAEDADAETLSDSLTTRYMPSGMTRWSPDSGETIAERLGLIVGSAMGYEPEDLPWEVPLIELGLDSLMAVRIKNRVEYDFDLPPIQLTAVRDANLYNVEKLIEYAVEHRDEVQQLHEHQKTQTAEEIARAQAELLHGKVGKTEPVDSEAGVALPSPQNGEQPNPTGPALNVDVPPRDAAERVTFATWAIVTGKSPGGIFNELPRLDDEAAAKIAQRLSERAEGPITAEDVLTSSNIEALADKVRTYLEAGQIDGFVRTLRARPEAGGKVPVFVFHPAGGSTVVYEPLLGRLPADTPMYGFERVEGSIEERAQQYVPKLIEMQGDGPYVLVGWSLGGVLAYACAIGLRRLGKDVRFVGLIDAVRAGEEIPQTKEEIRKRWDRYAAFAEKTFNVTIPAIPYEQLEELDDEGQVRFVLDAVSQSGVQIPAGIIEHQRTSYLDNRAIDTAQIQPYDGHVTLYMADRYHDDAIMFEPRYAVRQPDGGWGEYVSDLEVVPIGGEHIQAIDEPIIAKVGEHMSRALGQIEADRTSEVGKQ
UniProt Q8IDJ8, 1-583: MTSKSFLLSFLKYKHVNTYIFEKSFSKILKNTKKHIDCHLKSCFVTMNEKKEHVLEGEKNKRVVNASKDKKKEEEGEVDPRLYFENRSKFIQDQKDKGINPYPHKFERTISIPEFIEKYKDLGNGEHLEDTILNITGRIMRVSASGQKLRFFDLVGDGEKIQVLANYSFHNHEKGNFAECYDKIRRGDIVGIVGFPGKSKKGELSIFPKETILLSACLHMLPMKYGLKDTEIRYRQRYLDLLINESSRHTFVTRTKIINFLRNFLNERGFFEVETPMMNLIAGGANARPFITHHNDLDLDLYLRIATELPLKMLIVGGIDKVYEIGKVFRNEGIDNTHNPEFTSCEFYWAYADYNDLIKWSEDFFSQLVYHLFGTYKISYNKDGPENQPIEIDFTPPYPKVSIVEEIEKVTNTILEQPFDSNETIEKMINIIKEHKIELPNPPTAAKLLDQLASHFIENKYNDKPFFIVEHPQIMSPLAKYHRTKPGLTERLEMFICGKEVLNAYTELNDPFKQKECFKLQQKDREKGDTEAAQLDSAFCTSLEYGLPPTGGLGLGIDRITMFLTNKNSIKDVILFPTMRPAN
UniProt P9WNZ1, whole entry: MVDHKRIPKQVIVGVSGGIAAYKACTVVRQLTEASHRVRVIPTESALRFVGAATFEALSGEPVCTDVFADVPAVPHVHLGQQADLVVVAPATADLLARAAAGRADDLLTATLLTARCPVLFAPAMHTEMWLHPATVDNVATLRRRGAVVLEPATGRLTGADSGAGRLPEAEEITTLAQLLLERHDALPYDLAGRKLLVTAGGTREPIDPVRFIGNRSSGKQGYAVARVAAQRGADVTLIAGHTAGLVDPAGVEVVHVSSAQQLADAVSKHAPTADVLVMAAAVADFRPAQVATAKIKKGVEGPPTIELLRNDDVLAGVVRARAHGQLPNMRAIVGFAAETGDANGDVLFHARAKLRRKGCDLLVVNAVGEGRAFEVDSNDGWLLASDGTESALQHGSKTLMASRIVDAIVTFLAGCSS

Toxoplasma: 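Assay of Toxoplasma gondii numbers, read through their beta-galactosidase reporter with a colour substrate. Tested at 10 µM. The record gives no direction; the compounds picked for IC50 retests had high values, so higher reads as fewer parasites. Of about 67,000 compounds tested this way, about 260 (0.38%) reached 50% or more in at least one test.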
Pks13 thioesterase: 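Polyketide synthase Pks13, Mycobacterium tuberculosis (UniProt I6X8D2). Enzyme assay of the thioesterase domain of polyketide synthase 13; the read-out is not stated. Tested at 30 µM. Higher reads as stronger inhibition (inferred from which compounds were picked for retests). About 67,000 compounds were tested under these conditions; 0.46% (about 300) showed 50% or more at least once.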
PfKRS1: 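Lysine-tRNA ligase, Plasmodium falciparum 3D7 (UniProt Q8IDJ8). Enzyme assay of the cytosolic lysyl-tRNA synthetase in 384-well plates, read by luminescence. Concentration: 30 µM. Higher reads as stronger inhibition, judged from the few compounds that gave an IC50. About 69,000 compounds were tested under these conditions; 0.071% (about 49) showed 50% or more at least once.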
CoaBC: 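Coenzyme A biosynthesis protein CoaBC, Mycobacterium tuberculosis (UniProt P9WNZ1). Enzyme assay of CoaBC with a phosphate dye (Biomol Green) read at 650 nm. Compounds at 30 µM. Higher reads as stronger inhibition, judged from the few compounds that gave an IC50. Most strong results did not repeat in a second test. Of about 67,000 compounds tested this way, about 40 (0.06%) reached 50% or more in at least one test.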

Results are given as percent effect. The controls that fix the scale are not given in the record; negative values are as filed. The compounds are a random part of those screened. Two or more numbers in one place are separate tests of the same structure; such repeats can differ widely. A dash means the value is not listed here; it may have been measured.

SMILES	Toxoplasma	Pks13 thioesterase	PfKRS1	CoaBC
CCCc1nc(N(C)Cc2ccco2)c2c(n1)c(C)nn2CC	-4.697	3.965	1.369	2.152
CC(C)c1ccc(CS(=O)(=O)CC(=O)NCc2ccccc2F)cc1	5.32	4.4	0.6312	1.463
Cn1c(N2CCOCC2)nc2cc(C(=O)NCc3cccnc3)ccc21	-0.09153	-16.54	9.194	4.082
COc1ccccc1S(=O)(=O)N1CCC(Oc2cccnn2)CC1	-14.89	-14.43	-0.03477	-12.58
O=C(NS(=O)(=O)c1cccc(C(F)(F)F)c1)c1cnsn1	-15.5	-4.088	1.963	-0.9901
Cc1nc(N2CCOCC2)nc2c1CCN(C(=O)C1CCCCC1)CC2	-9.971	3.556	1.223	1.504
Cc1ccc(C)c(CN(C)Cc2nnc3ccccn23)c1	11.55	17.21	-6.752	2.823
CCN(CC)S(=O)(=O)c1ccc(CNC(=O)N2CCCCCC2)cc1	2.442	0.2628	2.287	4.959
CCC(C#N)NC(=O)c1cc(Br)c2c(c1)OCCO2 (stereo not drawn)	2.696	-7.908	0.5835	0.2611
CNC(=O)CN1CCOCC2(C1)CN(Cc1csnn1)CCO2 (stereo not drawn)	-5.272	-6.07	5.633	1.724
CCCc1nc(N(C)Cc2cnc(NC)nc2)c2cnn(C)c2n1	-8	-	-4.216	-0.6536
CC(=O)c1cccc(-c2nc3c([nH]2)CCNC3)c1F	-1.799	-26.44	0.7704	-24.19
[H][C@]12CC[C@]([H])(CN(C3Cc4ccccc4C3)C1)N(C(=O)CSC)C2	3.188	-	-	-
COc1ccc(C(=O)O)c(OCC(=O)NC(C)c2ccccc2)c1 (stereo not drawn)	-13.63	-25.32	1.565	-7.692
O=C(O)C(F)(F)F.O=C(O)C(F)(F)F.[H][C@]12CCC[C@@H](CNC(C)(C)C)[C@@]1([H])CN(Cc1csnn1)C2	22.39	-	-	-
Cc1ccc(C(=O)O)c(N2Cc3cnc(C(C)(C)C)nc3C2)n1	13.78	-11.04	3.022	3.608 & 28.54
CCO[C@@H]1CC[C@H]2[C@H]1OCCN2C(=O)CC1=CCCCC1	-	5.463	8.826	-0.1212
Cc1cc(C(=O)N2CCC3(CC2)CC(c2cccnc2)C(=O)N3)no1 (stereo not drawn)	-	-3.719	3.637	3.393
O=C(NCC1CC1)C1=NOC2(CCN(Cc3ccc4c(c3)OCO4)C2)C1 (stereo not drawn)	3.419	-25.11	5.909	0.6345
CCOC(=O)CSc1nnc(C(N)CC(C)C)o1 (stereo not drawn)	-	-9.032	2.792	-0.4843
CC(C)Nc1cc(N2CCN(Cc3ccccc3)C(CCO)C2)ncn1 (stereo not drawn)	0.2378	-3.032	2.993	0
Cc1nc(CC(=O)N2CCCN(c3ccc(C#N)cc3)CC2)cs1	0.553	-21.2	-0.4759	3.104
CCc1nccn1-c1nccnc1C1CCN(C(=O)COC)CC1	16.84	-28.47	-1.854	11.86 & 20.4
Cc1occc1C(=O)NCC1OCCc2cn(C)nc21 (stereo not drawn)	-	4.688	5.723	-2.788
O=C(c1cnc2ccccc2c1)N1CCC2(CCN2c2ncccn2)C1 (stereo not drawn)	-	40.65	1.526	-0.1616
COc1ccc(CN2CCOC[C@H](OCC(=O)N(C)C)C2)cc1	-3.099	0.5463	7.628	16.7
CNc1cc(C2CCCN2C(=O)c2ccc(=O)[nH]n2)ccn1 (stereo not drawn)	-	2.206	1.159	6.294
COCc1cccc(CNC(=O)CN2CCCC2c2noc(C)n2)c1 (stereo not drawn)	-19.62	-9.222	4.014	-2.394
O=c1cc(Cn2ccnc2)nc2n1CCCN(Cc1ccc(F)cc1)C2	5.944	2.665	-2.821	7.268
O=C(c1cc[nH]n1)N1CCc2onc(COc3cccnc3)c2C1	-	-14.36	5.643	-3
Cc1cc(C2CCCN2Cc2nc3c(cnn3C)c(=O)[nH]2)on1 (stereo not drawn)	7.179	-0.8629	0.6195	5.357
Cc1nc(CO[C@H]2CN(C(=O)c3cccn3C)[C@@H]3COC[C@H]23)cs1	-	-10.51	5.993	1.724
CC(=O)N1CC[C@H]2CC(=O)N(CCc3c[nH]cn3)CC[C@H]2C1	-	1.806	8.373	9.934
O=C1NCCN1C1CCCN(Cc2nnc(-c3ccc(F)cc3)o2)C1 (stereo not drawn)	2.262	-4.059	6.054	10.79
[H][C@@]12CN(C(=O)C3CCOC3)C[C@]1([H])C(=O)N(Cc1cccc(C)c1)C2 (stereo partly drawn)	-2.489	-	-	-
Cc1ccoc1C(=O)N1CCCN(Cc2cnn(C)c2)CC1	-8.226	-9.411	-2.127	5.744
Cc1ncsc1CCCNC(=O)C1CC2(CCNCC2)CN1C (stereo not drawn)	2.779	-6.671	-2.362	-37.37
NC(=O)c1ccc(CN2CCCC(O)C2)cc1 (stereo not drawn)	10.42	-6.074	5.479	-8.903
Nc1ccc(CC2COc3ccccc3C2)cn1 (stereo not drawn)	7.226	-32.41	0.02224	1.799
COCC(=O)N1CC[C@]2(O)CCN(C(=O)CCc3ccsc3)C[C@@H]2C1	-	-10.95	4.965	0.7229
OC(CNCCn1cccn1)c1cccc(F)c1 (stereo not drawn)	-2.768	-17.22	1.214	4.439
O=C([C@@H]1CCO[C@@H]2CCN(CC3CCOCC3)C[C@H]21)N1CCCC1	-	-	6.416	2.463
Cc1ccc(C(=O)O)cc1-c1cccc2c1CCNC2	-10.75	-3.254	4.634	1.728
CC(=O)Nn1ccc2c(nnc3c(-c4ccc(F)cc4)cnn32)c1=O	4.287	2.409	-3.983	8.908
Cc1cc(CN(C2CC2)C(C)C(C)C)no1 (stereo not drawn)	-11.06	-13.29	1.188	-0.7426
Cc1ccn(CCNC(=O)C2(C)CC(c3ccccc3)=NO2)n1 (stereo not drawn)	-3.451	1.014	-0.3433	-88.47
Cc1ccc(N2CCN(C(=O)CN3C[C@@H]4CC[C@H]3C4)CC2=O)cc1	-	-44.34	-0.326	12.1
CC(C)n1c2ccccc2c2c1cc(C(=O)N(C)C)n2S(C)(=O)=O	9.435	-36.7	-1.607	-3.21
CN(CCOc1cccc(CN)c1)C1CCOCC1	-2.424	-15.26	2.498	-38.59
CCn1c(C2CCN(C(=O)CCc3cc(Cl)no3)CC2)nn(C)c1=O	3.401	-10.78	0.1569	0.9709
COc1ccc2c(C)c(C(=O)NC3CCCOC3)oc2c1 (stereo not drawn)	4.088	-12.45	3.679	-3.688
CC(NC(=O)NCCCO)c1ccc2c(c1)OCCO2 (stereo not drawn)	10.55	-9.665	3.139	-1.012
COc1ccccc1OC1(C(=O)O)CCN(c2nccnc2C)CC1	19.66	-18.17	0.5831	5.806
O=C(c1cccs1)N1CCC2(C1)c1ccccc1S(=O)(=O)N2CC1CC1 (stereo not drawn)	2.052	-37.3	-1.633	0.2591
Cc1ncsc1C(=O)N1CC[C@@H]2[C@@H](CC1)OCCN2c1cccnc1	-	-22.06	0.3627	4.44
O=C(c1ccoc1)N1CCc2ncc(Cn3cccn3)n2CC1	5.698	0.3622	0.2359	1.11
O=C(NCc1ccco1)[C@@H]1C[C@H]2OCC[C@H]2N(c2ncc(F)cn2)C1	-	-6.53	-0.9199	-1.11
CC(NC(=O)NC1CC1)c1nc(-c2ccccc2)cs1 (stereo not drawn)	1.25	-2.193	9.382	1.556
CS(=O)(=O)N1CCC(CNc2c(Cl)cccc2C#N)CC1	11.71	19.96	4.349	0
CC(CC(F)(F)F)NCc1ccccc1-n1ccnc1 (stereo not drawn)	-4.174	-18.4	0.2867	1.597
Cc1c(C(=O)O)cnn1-c1ccc(-c2nc(C(C)C)no2)cn1	15.85	-20.62	3.433	-4.481
CN(C)c1ccc(C(=O)Nc2ccn(CCc3ccncc3)n2)cc1	-31.83	-14.67	0.6922	-5.409
Cc1cc(C)n(-c2ccc(CNCc3ccc(F)cc3F)cn2)n1	-0.2368	0.967	2.044	5.45
C=C(C)COc1cccc(C(=O)N2CCC(O)(c3ccccc3)CC2)c1	-2.608	16.17	2.713	6.8

Once more, the final 4:

| SMILES | Toxoplasma | Pks13 thioesterase | PfKRS1 | CoaBC |
|---|---|---|---|---|
| `Cc1c(C(=O)O)cnn1-c1ccc(-c2nc(C(C)C)no2)cn1` | 15.85 | -20.62 | 3.433 | -4.481 |
| `CN(C)c1ccc(C(=O)Nc2ccn(CCc3ccncc3)n2)cc1` | -31.83 | -14.67 | 0.6922 | -5.409 |
| `Cc1cc(C)n(-c2ccc(CNCc3ccc(F)cc3F)cn2)n1` | -0.2368 | 0.967 | 2.044 | 5.45 |
| `C=C(C)COc1cccc(C(=O)N2CCC(O)(c3ccccc3)CC2)c1` | -2.608 | 16.17 | 2.713 | 6.8 |

Measurements from “University of Dundee, Small-Polar-MMV Screening Library” (2021), ChEMBL document CHEMBL3988442.